# The list shows a part of the results.
# Chains of the proteins cited; added tags and fusions are not shown.
# UniProt Q0JBA9, entry or part of it: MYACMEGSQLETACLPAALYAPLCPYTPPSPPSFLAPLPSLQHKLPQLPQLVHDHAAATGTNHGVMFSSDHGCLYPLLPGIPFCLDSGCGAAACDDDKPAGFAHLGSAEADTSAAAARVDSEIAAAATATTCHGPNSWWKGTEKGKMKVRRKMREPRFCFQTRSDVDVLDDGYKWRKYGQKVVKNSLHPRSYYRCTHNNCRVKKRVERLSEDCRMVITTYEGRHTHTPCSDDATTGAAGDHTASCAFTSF
# Biological target: OsWRKY34 (Oryza sativa, UniProt Q0JBA9 1-250)
# Experiment: protein-binding microarray (RPBM); PBS, 2% BSA, 51.3 ng/ul salmon testes DNA, 50 uM zinc acetate, 200 nM TF, 25 C, 1 h; high values mean tight binding
# Details: protein: recombinant; tags: N-terminal polyhistidine and DsRed monomer fusion (pET32a); label: CyDye5-dUTP incorporated in the synthesized complementary strand; 3' TTTTT single-stranded linker to array surface; dsDNA, one strand shown
# How it was run: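 Binding signal is defined as the fluorescence intensity of each feature in arbitrary units, read on an Axon 4000B scanner. Transcription factors with N-terminal polyhistidine and DsRed fusions came from E. coli BL21-CodonPlus and were purified on Ni–NTA. They were incubated at 200 nM for 1 h at 25 °C on a custom Agilent array that had been made double-stranded with Cy5-dUTP, with 50 µM zinc acetate present, and the array was washed.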
row,Sequence,binding signal
1,CATTGCCAGCCTCGTCCCAATCCCACCACCTGCGCCACGCCGGAGTCACCTAGTGCAG,8760 fluorescence intensity (a.u.)
2,AATTTTTATTCACCCACCCTAGCACAAATCTTCAACATCTCGGAGTCACCTAGTGCAG,9570 fluorescence intensity (a.u.)
3,ATCTCATTGTTTGTTACCAAATCCGGTTTACACCATTTTACGGAGTCACCTAGTGCAG,8180 fluorescence intensity (a.u.)
4,CGTCATCTTCTTCCTTCAGCTCACGCTGACCAAACACCATCGGAGTCACCTAGTGCAG,8620 fluorescence intensity (a.u.)
5,ATGTTTCAAGTTTATTTTTGCTGCTCAGATTTAGATGATACGGAGTCACCTAGTGCAG,8470 fluorescence intensity (a.u.)
6,ACCAGCGTTGACTCGTCGTTTCCTACCGTGTCACTATATTCGGAGTCACCTAGTGCAG,15600 fluorescence intensity (a.u.)
7,CTAGTCGAGTCCATGCCCATTCATCTCTTCACATTGCAAACGGAGTCACCTAGTGCAG,9660 fluorescence intensity (a.u.)
8,AAGCACATCGCCGTCCTCCACCCGCCCGTCGCATCCGCCTCGGAGTCACCTAGTGCAG,8080 fluorescence intensity (a.u.)
9,AGTTTCTTTATATCCCATGGCGTTTGCCTCGTTTGTCGTACGGAGTCACCTAGTGCAG,9900 fluorescence intensity (a.u.)
10,TCTGTTTATAATATCTGGGGTCATGTGATTCGGGTTACTACGGAGTCACCTAGTGCAG,9160 fluorescence intensity (a.u.)
11,GGGCAGTGCTTTATACCACCAATGACATCCAGGTTCATGTCGGAGTCACCTAGTGCAG,8610 fluorescence intensity (a.u.)
12,ACTTCTATTGGCCGTTCGACACGCGAAAACCAACCCAATGCGGAGTCACCTAGTGCAG,8110 fluorescence intensity (a.u.)
13,GGGCCATAATTGTTTCAATTTCAGTGTAATCTATTGGATTCGGAGTCACCTAGTGCAG,8120 fluorescence intensity (a.u.)
14,TTCCCTTTTCTTCCCGAACGGCGGTGGTGGTGGGCTTAGTCGGAGTCACCTAGTGCAG,8070 fluorescence intensity (a.u.)
15,TCTATCTATTGAGTTGCCTTTTGATTTGTCAACCATACATCGGAGTCACCTAGTGCAG,9560 fluorescence intensity (a.u.)
16,AATTTTCTCAACGCCGCACTGGTCCATCACTCCAAGGTCACGGAGTCACCTAGTGCAG,8930 fluorescence intensity (a.u.)
17,AGTGCTGGAGGAGGGAGGCGGGGAGGGGAGCCATCAGCCACGGAGTCACCTAGTGCAG,17300 fluorescence intensity (a.u.)
18,TGGCTAGTTTGGCCGGCGCGCGCGGGGAGGGAGGGAGGGACGGAGTCACCTAGTGCAG,11700 fluorescence intensity (a.u.)
19,CACCACGTCTCGCGCCGCAGCGTATGCACACCTCCTCAGCCGGAGTCACCTAGTGCAG,10000 fluorescence intensity (a.u.)
20,CCAGCCTCCACTGTGCTCCTCGTGTCCGCCGTTCTGATCTCGGAGTCACCTAGTGCAG,11200 fluorescence intensity (a.u.)
21,ATTCCCGGCCATGTTCTTCAATTCCTGTCCGGCTCAGTACCGGAGTCACCTAGTGCAG,8430 fluorescence intensity (a.u.)

row,Sequence,binding signal
1,ACTTTCTTTTTGGGCCTGAAACCACGACGGCCCTTTGTTCCGGAGTCACCTAGTGCAG,8760 fluorescence intensity (a.u.)
2,GGTGGGTGTGTGCTTGTTTCGGCGTGTGATTTGGGCGGAGCGGAGTCACCTAGTGCAG,16500 fluorescence intensity (a.u.)
3,TCACCCTGTCCTCGTCACGTCCCATTTTACATCCACCACCCGGAGTCACCTAGTGCAG,9210 fluorescence intensity (a.u.)
4,TGGTGGTGGCTGGCGGCGGGGAGGATGAGAACGAGAGAAGCGGAGTCACCTAGTGCAG,9940 fluorescence intensity (a.u.)
5,CTTTCACTATCAGCACAAGACTTGTCTGCCAATATCTCATCGGAGTCACCTAGTGCAG,8160 fluorescence intensity (a.u.)
6,CACTATCTCATCTGCGGTGTAGAGTTGACCTCTCTAATTTCGGAGTCACCTAGTGCAG,9230 fluorescence intensity (a.u.)
7,AAACCTCACCATCATCGACCCACTTGTTCCTAGCGATCTACGGAGTCACCTAGTGCAG,9980 fluorescence intensity (a.u.)
8,TCTCCTGGTTTTGTGTGTTAGCGCTGTCAGTGTGTGGGTGCGGAGTCACCTAGTGCAG,8120 fluorescence intensity (a.u.)
9,TAGTCTGTCAAATTGGCCATCCATCTCCAGCACTGATACCCGGAGTCACCTAGTGCAG,8310 fluorescence intensity (a.u.)
10,CGTCGTCCCCGCCGCGCCGCCGCCGCCGCATCCTCCGGGTCGGAGTCACCTAGTGCAG,9300 fluorescence intensity (a.u.)
11,CCGGGTTCTATCAAAATCTACGTAACTATACAAGCACATTCGGAGTCACCTAGTGCAG,8070 fluorescence intensity (a.u.)
12,GTTTCGACTGCTCCACAACTCCACTCTAAACCCACATTATCGGAGTCACCTAGTGCAG,9510 fluorescence intensity (a.u.)
13,GGTCGCCGTCGTCAACGTTGGTCTTGGGCACCTCGCGTTTCGGAGTCACCTAGTGCAG,10600 fluorescence intensity (a.u.)
14,GAGCTCTGGCCCACTCTTCAGTCTTCGGATTCTCCACTCTCGGAGTCACCTAGTGCAG,8120 fluorescence intensity (a.u.)
15,TGTTTGTGTGGCGGGGAGGAGGCGATGCCGCAAGGGGCGACGGAGTCACCTAGTGCAG,8880 fluorescence intensity (a.u.)
16,AACGTACTGCTCCCTGCCCCTCTTGATTTGGTTTCTTTCTCGGAGTCACCTAGTGCAG,8280 fluorescence intensity (a.u.)
17,ACCACCACCCTGATGGATCTTGGCTCTAGCTCCTGGTTTTCGGAGTCACCTAGTGCAG,8110 fluorescence intensity (a.u.)
18,AAAAATATTTGACAGCGTTGACTTTTTAGTGCGTATTTGACGGAGTCACCTAGTGCAG,42800 fluorescence intensity (a.u.)
19,ATATTGCGATGCACTGATTTTTTTTCGTAGCGTTTCCGTACGGAGTCACCTAGTGCAG,10000 fluorescence intensity (a.u.)
20,CCAATTTTGTGTACACACACGCACTAACTGAGATCGATGACGGAGTCACCTAGTGCAG,8160 fluorescence intensity (a.u.)
21,CGTGGCGTGGTAGTCTTCGACTCGTTCTTTTTGTTGTTGTCGGAGTCACCTAGTGCAG,8610 fluorescence intensity (a.u.)

row,Sequence,binding signal
1,TTCCCTCGTCGTCTTCTTCGTGTCCGCTCTTTGGGCCTCGCGGAGTCACCTAGTGCAG,9330 fluorescence intensity (a.u.)
2,AGCAACCAGTCGCCTCTCCCCGCCGCACGCACGCACACCTCGGAGTCACCTAGTGCAG,8960 fluorescence intensity (a.u.)
3,AAGGGGTTTCTCTTCTATTCTCATTTGCTTTTCCTTTTTGCGGAGTCACCTAGTGCAG,8750 fluorescence intensity (a.u.)
4,GTGGTGATTCCGCCCCATCCATCCCGCGTCGACGTAGAAACGGAGTCACCTAGTGCAG,8260 fluorescence intensity (a.u.)
5,TTTAGAGTCATGTTGGTGTCTGGATTTCCTTTTGTTGGTACGGAGTCACCTAGTGCAG,8740 fluorescence intensity (a.u.)
6,TTACATGTAAACTGTGCAATTGGTTCTTTTTTCATCCACACGGAGTCACCTAGTGCAG,8370 fluorescence intensity (a.u.)
7,AATTTTGGATATGTTTGTCTCTTTTTTTATTTCATTCGAACGGAGTCACCTAGTGCAG,8350 fluorescence intensity (a.u.)
8,CTGCACCACCCCACCCCACCCCACCCCACCGGCGGCGATGCGGAGTCACCTAGTGCAG,9040 fluorescence intensity (a.u.)
9,CTTGTCGCTACCATCGGACCGCACATCGTAGCTGCCGGACCGGAGTCACCTAGTGCAG,8250 fluorescence intensity (a.u.)
10,ATCGATCGGTTAATCTGTAGGCTGCTACCTCGCTAGCTCCCGGAGTCACCTAGTGCAG,8510 fluorescence intensity (a.u.)
11,ACCACACACACACTGACACTGTGACACAACACAACACGGCCGGAGTCACCTAGTGCAG,9500 ± 738 fluorescence intensity (a.u.)
12,GTCATCACCACCACGCGAGCTCGCTCAGCAACACGACACGCGGAGTCACCTAGTGCAG,8510 fluorescence intensity (a.u.)
13,CGCCCACCGCCCGCGTCTGCTCAGCTGGTTTAAATTTGAACGGAGTCACCTAGTGCAG,9550 fluorescence intensity (a.u.)
14,ATCCTCTCTCCTGAAGACCTATTTGCAGTAAGTGTTCTCTCGGAGTCACCTAGTGCAG,8370 fluorescence intensity (a.u.)
15,ACTATAATATTCATCCGATCCAAATCCGCATATTCTCGGTCGGAGTCACCTAGTGCAG,8720 fluorescence intensity (a.u.)
16,ATCCAAGCCATGTTCCATACGCATCACAATTCCACAAGCTCGGAGTCACCTAGTGCAG,9480 fluorescence intensity (a.u.)
17,AACCAGTTCAATCATCCAGTATACTTCCCATCCTCCTACTCGGAGTCACCTAGTGCAG,8460 fluorescence intensity (a.u.)
18,CGAATTTTTTCATTTTTTTTCTCTCTTTCCATTCTCCCCGCGGAGTCACCTAGTGCAG,8100 fluorescence intensity (a.u.)
19,CCAAATGGAGGTGCATTCTCATTTCTCACCGGCCGTTGACCGGAGTCACCTAGTGCAG,11100 fluorescence intensity (a.u.)
20,CTTAATTGCTTATTGGTTTTTCATGGATCGTATTTATCAACGGAGTCACCTAGTGCAG,9780 fluorescence intensity (a.u.)
21,CTAACCTGGACCGTCCATCCGCGCGAAGTTTTCTCCACCGCGGAGTCACCTAGTGCAG,9060 fluorescence intensity (a.u.)

row,Sequence,binding signal
1,CCCTACTCCCTCCCGTGAGGCCCAACCATCTCCGTCTCTCCGGAGTCACCTAGTGCAG,8880 fluorescence intensity (a.u.)
2,CTCCATCTCCATTATTTCCACCCCGGCAACAATCCAACCGCGGAGTCACCTAGTGCAG,8860 fluorescence intensity (a.u.)
3,GCCACCAATCCTCGGCCTCCGCGCGCGGCTGCGCCCAGTCCGGAGTCACCTAGTGCAG,12300 fluorescence intensity (a.u.)
4,GTGTACTTTATCCGATATAAGATGTAACTTATTTTATTTACGGAGTCACCTAGTGCAG,9300 fluorescence intensity (a.u.)
5,CTTCGATTAGCTCAGTTCTATACTTCTATTTCGTCTGTTGCGGAGTCACCTAGTGCAG,8270 fluorescence intensity (a.u.)
6,AACTAACGATCACGACGTTGACTTCAATCCACATATATATCGGAGTCACCTAGTGCAG,11500 fluorescence intensity (a.u.)
7,CTACCTATGTCGATCGAAGTTCCTGGCATACACTGTATACCGGAGTCACCTAGTGCAG,9170 fluorescence intensity (a.u.)
8,TACAAGGTCGAATCCACCAACCTGACTTCTTTTTCGTCGCCGGAGTCACCTAGTGCAG,8140 fluorescence intensity (a.u.)
9,GGTCGAGCATCCCGTCACCTTCCCACTCCTCATTTGCTCGCGGAGTCACCTAGTGCAG,10800 fluorescence intensity (a.u.)
10,GGAGGAGAGGAGGTGAGTAGGGGTAGTTCAATGGCATTTTCGGAGTCACCTAGTGCAG,8640 fluorescence intensity (a.u.)
11,ACGTCTGCCTTATTTGTAAATATTTCTTTGTTTTCTATTTCGGAGTCACCTAGTGCAG,10800 fluorescence intensity (a.u.)
12,ACTTTATCGTGTATCAATTCATCTTTGTGCGTCTTGACTACGGAGTCACCTAGTGCAG,9070 fluorescence intensity (a.u.)
13,GCTCCAGCCCAATCTGCTGCTTCCTACCTTTTCTCCATACCGGAGTCACCTAGTGCAG,10000 fluorescence intensity (a.u.)
14,TCCTGTCGTATGTCTTCACCACCACACAAACAATGCTTCTCGGAGTCACCTAGTGCAG,9550 fluorescence intensity (a.u.)
15,CAGAGGGACCCAACGTAGTGCCAAACGTCACCATTTCATGCGGAGTCACCTAGTGCAG,8220 fluorescence intensity (a.u.)
16,AATAAGACGAATGGTCAAACGCGTACTAAAAAGTCAACGGCGGAGTCACCTAGTGCAG,14500 fluorescence intensity (a.u.)
17,TCCAGCCACGCCTCGTCACTCGCCACCCACACTGCGCAAGCGGAGTCACCTAGTGCAG,10000 fluorescence intensity (a.u.)
18,TACTCATCTCCTTCGGTGACATACACTGTTGCACTTTGGCCGGAGTCACCTAGTGCAG,11500 fluorescence intensity (a.u.)
19,TGGTTCTTGGGCAGCTTGTTGGGGAATTCGGTTTCGACGACGGAGTCACCTAGTGCAG,13300 fluorescence intensity (a.u.)
20,AACTAGGTCCCTCGGCGGTTTTGACTCCTGTTTTGTCCAACGGAGTCACCTAGTGCAG,12500 fluorescence intensity (a.u.)
21,TTATATAGGGTGTCATATGGGGTGTTTGGATACTAATAAACGGAGTCACCTAGTGCAG,9390 fluorescence intensity (a.u.)
